Binding data for one substance are collected here from article PMC4986891.

By UniProt entry, the sequences of proteins in these tests, tags left out. Where a name states a change or a piece, a line headed by the entry shows the natural chain unless it says otherwise.
UniProt Q1MTR2: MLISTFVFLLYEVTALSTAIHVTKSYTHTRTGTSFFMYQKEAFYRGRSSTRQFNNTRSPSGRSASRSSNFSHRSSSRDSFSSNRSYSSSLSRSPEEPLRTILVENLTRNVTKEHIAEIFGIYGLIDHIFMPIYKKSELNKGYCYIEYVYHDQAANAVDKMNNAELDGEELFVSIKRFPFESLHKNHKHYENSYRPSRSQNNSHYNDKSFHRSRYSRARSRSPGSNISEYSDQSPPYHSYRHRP
UniProt Q10055: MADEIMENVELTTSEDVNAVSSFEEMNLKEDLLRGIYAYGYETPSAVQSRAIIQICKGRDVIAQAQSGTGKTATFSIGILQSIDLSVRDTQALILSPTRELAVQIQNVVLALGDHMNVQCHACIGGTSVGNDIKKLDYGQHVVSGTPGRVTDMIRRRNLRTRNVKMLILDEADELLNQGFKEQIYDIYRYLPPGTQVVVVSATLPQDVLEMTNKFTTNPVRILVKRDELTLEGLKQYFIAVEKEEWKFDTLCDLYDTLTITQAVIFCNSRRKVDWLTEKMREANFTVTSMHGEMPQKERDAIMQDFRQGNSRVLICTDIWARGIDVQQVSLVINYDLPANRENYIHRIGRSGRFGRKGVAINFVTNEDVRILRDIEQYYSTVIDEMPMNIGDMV

No constants are given. Whether binding was seen depends on the method and setting. Binding seen in cells or lysates may run through a third protein. Binding can be weak; no strength is given.

The target in this test is Rnps1-GFP (S. pombe) (UniProt Q1MTR2). Description: co-IP; S. pombe whole-cell lysates (Benzonase-treated) of strains with epitope-tagged proteins; FTP-tagged proteins pulled down with IgG Sepharose, Myc-, HA- and GFP-tagged proteins with Protein A/G agarose and antibody; IP 2 h at 4 C; Western blot; also done in strains lacking Y14 or Rnps1. On the technique in general: Immunoblotting shows a protein as a band on a membrane.

With pFal1-Myc (from UniProt Q10055 1-394), the binding result is given as “binds”.
